Some entries share one result that the patent states for a list of compounds.
Assay: HLM (Human Liver Microsomes) assay
Type: in vitro ADME
Conditions: human liver microsomes 0.5 mg/mL, 0.5 μM compound, NADPH, 37° C.; average of 2 to 3 tests

SMILES | HLM assay, hepatic extraction ratio Eh [%]
CC[C@@H](C)OC(=O)C1(c2nc3c(OC)ccc(-c4ccc5c(c4)COC5=O)n3n2)CC1 [Compound 2, [(1R)-1-Methylpropyl]1-[8-methoxy-5-(1-oxo-3H-isobenzofuran-5-yl)-[1,2,4]triazolo-[1,5-a]pyridin-2-yl]cyclopropanecarboxylate] | > 91
CC[C@H](C)OC(=O)C1(c2nc3c(OC)ccc(-c4ccc5c(c4)COC5=O)n3n2)CC1 [Compound 1, [(1S)-1-Methylpropyl]1-[8-methoxy-5-(1-oxo-3H-isobenzofuran-5-yl)-[1,2,4]triazolo-[1,5-a]pyridin-2-yl]cyclopropanecarboxylate] | > 91
COc1ccc(-c2ccc3c(c2)COC3=O)n2nc(C3(C(=O)OCC(C)C)CC3)nc12 [Compound 3, [2-Methylpropyl]1-[8-methoxy-5-(1-oxo-3H-isobenzofuran-5-yl)-[1,2,4]triazolo[1,5-a]pyridin-2-yl]cyclopropanecarboxylate] | > 91
COc1ccc(-c2ccc3c(c2)COC3=O)n2nc(C3(C(=O)OC(C)(C)C)CC3)nc12 [Compound 4, Tert-butyl 1-[8-methoxy-5-(1-oxo-3H-isobenzofuran-5-yl)-[1,2,4]triazolo[1,5-a]pyridin-2-yl]cyclopropanecarboxylate] | > 91
